# Experimental data reported in PMC4223510.
# These are yes or no findings as the source states them, for the method shown. In cells and extracts the contact can be indirect. For some assays here: Binding can be weak; no strength is given. Sequences can lack the tags named with a protein.
# Legend:
# [1] = molecular target: His-tagged HIV-1 integrase p32 (His-INp32) (HIV-1 strain NL4-3); experiment: pull-down; 293T cells cotransfected with Flag-HAP95 and a His-tagged protein; lysates (50 mM NaH2PO4 pH 8.0, 150 mM NaCl, 10 mM imidazole, 0.5% Triton X-100, 10% glycerol) precipitated with Ni-NTA agarose, 4°C, 2 h; eluted with 250 mM imidazole; Western blot with anti-His and anti-Flag
# [2] = molecular target: His-tagged HIV-1 reverse transcriptase p66 (His-RTp66) (HIV-1 strain NL4-3); experiment: as above
binder,measurement,setting,value
"Flag-HAP95 (N-terminally Flag-tagged A-kinase anchoring protein 95-like protein) (protein, UniProt Q9ULX6 2-646) SYTGFVQGSETTLQSTYSDTSAQPTCDYGYGTWNSGTNRGYEGYGYGYGYGQDNTTNYGYGMATSHSWEMPSSDTNANTSASGSASADSVLSRINQRLDMVPHLETDMMQGGVYGSGGERYDSYESCDSRAVLSERDLYRSGYDYSELDPEMEMAYEGQYDAYRDQFRMRGNDTFGPRAQGWARDARSGRPMASGYGRMWEDPMGARGQCMSGASRLPSLFSQNIIPEYGMFQGMRGGGAFPGGSRFGFGFGNGMKQMRRTWKTWTTADFRTKKKKRKQGGSPDEPDSKATRTDCSDNSDSDNDEGTEGEATEGLEGTEAVEKGSRVDGEDEEGKEDGREEGKEDPEKGALTTQDENGQTKRKLQAGKKSQDKQKKRQRDRMVERIQFVCSLCKYRTFYEDEMASHLDSKFHKEHFKYVGTKLPKQTADFLQEYVTNKTKKTEELRKTVEDLDGLIQQIYRDQDLTQEIAMEHFVKKVEAAHCAACDLFIPMQFGIIQKHLKTMDHNRNRRLMMEQSKKSSLMVARSILNNKLISKKLERYLKGENPFTDSPEEEKEQEEAEGGALDEGAQGEAAGISEGAEGVPAQPPVPPEPAPGAVSPPPPPPPEEEEEGAVPLLGGALQRQIRGIPGLDVEDDEEGGGGAP",binding,[1],no binding
same,binding,[2],binds
